# Test results reported in PMC5696493.
# No constants are given. Whether binding was seen depends on the method and setting. In cells and extracts the contact can be indirect. Some entries that bind do so weakly or less than the wild type. For part of these data: Tags and fused reporters may be left off the sequences shown.
# T1: YFP–CYP2J5 fusion protein (mouse) (UniProt O54749)
# T1 sequence: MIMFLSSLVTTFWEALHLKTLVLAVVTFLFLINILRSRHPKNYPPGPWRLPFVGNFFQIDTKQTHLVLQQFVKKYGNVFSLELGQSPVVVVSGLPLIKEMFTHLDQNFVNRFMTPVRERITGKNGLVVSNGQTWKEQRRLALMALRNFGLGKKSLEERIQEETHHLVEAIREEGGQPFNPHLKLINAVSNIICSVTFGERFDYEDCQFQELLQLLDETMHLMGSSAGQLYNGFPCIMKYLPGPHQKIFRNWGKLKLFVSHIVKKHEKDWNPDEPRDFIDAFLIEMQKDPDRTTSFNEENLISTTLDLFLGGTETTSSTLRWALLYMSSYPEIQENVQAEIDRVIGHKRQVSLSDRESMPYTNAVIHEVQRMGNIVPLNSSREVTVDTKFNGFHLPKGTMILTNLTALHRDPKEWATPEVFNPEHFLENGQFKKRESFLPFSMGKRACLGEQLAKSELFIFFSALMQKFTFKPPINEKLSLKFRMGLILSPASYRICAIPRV
# T2: CYP2J5, endogenous in mouse hippocampal neurons (mouse (endogenous in primary hippocampal neurons)) (UniProt O54749)
# T2 sequence: T1 sequence
# B1: CFP–mEH fusion protein (mouse microsomal epoxide hydrolase) (enzyme, UniProt Q9D379 1-455)
# chain: MWLELILASVLGFVIYWFVSRDKEETLPLEDGWWGPGSKPSAKEDESIRPFKVETSDEEIKDLHQRIDRFRASPPLEGSRFHYGFNSSYLKKVVSFWRNEFDWRKQVEILNQYPHFKTKIEGLDIHFIHVKPPQLPSGRTPKPLLMVHGWPGSFYEFYKIIPLLTDPKTHGLSDEHVFEVICPSIPGYGFSEASSKKGLNSVATARIFYKLMSRLGFQKFYIQGGDWGSLICTNIAQMVPNHVKGLHLNMSFISRNIYSLTPLLGQRFGRFLGYTEKDLELLYPFKEKVFYNIMRESGYLHIQATKPDTVGCALNDSPVGLAAYILEKFSTWTKSEYRELEDGGLERKFSLEDLLTNIMIYWTTGTIVSSQRFYKENLGQGVMVHRHEGMKVFVPTGYSAFPSEILHAPEKWVKVKYPKLISYSYMERGGHFAAFEEPKLLAQDIRKFVSLAELQ
# B2: CFP–CPR fusion protein (mouse cytochrome P450 reductase) (enzyme, UniProt P37040 1-678)
# chain: MGDSHEDTSATVPEAVAEEVSLFSTTDIVLFSLIVGVLTYWFIFKKKKEEIPEFSKIQTTAPPVKESSFVEKMKKTGRNIIVFYGSQTGTAEEFANRLSKDAHRYGMRGMSADPEEYDLADLSSLPEIDKSLVVFCMATYGEGDPTDNAQDFYDWLQETDVDLTGVKFAVFGLGNKTYEHFNAMGKYVDQRLEQLGAQRIFELGLGDDDGNLEEDFITWREQFWPAVCEFFGVEATGEESSIRQYELVVHEDMDTAKVYTGEMGRLKSYENQKPPFDAKNPFLAAVTTNRKLNQGTERHLMHLELDISDSKIRYESGDHVAVYPANDSTLVNQIGEILGADLDVIMSLNNLDEESNKKHPFPCPTTYRTALTYYLDITNPPRTNVLYELAQYASEPSEQEHLHKMASSSGEGKELYLSWVVEARRHILAILQDYPSLRPPIDHLCELLPRLQARYYSIASSSKVHPNSVHICAVAVEYEAKSGRVNKGVATSWLRTKEPAGENGRRALVPMFVRKSQFRLPFKPTTPVIMVGPGTGVAPFMGFIQERAWLREQGKEVGETLLYYGCRRSDEDYLYREELARFHKDGALTQLNVAFSREQAHKVYVQHLLKRDKEHLWKLIHEGGAHIYVCGDARNMAKDVQNTFYDIVAEFGPMEHTQAVDYVKKLMTKGRYSLDVWS
# B3: microsomal epoxide hydrolase (mEH), endogenous in mouse hippocampal neurons (enzyme, UniProt Q9D379 1-455)
# chain: B1 chain
# How the values were obtained:
# [1] = molecular target: T1, YFP–CYP2J5 fusion protein (mouse); assay: FRET or BRET; FACS-based FRET (FAMPIR), sensitized emission, living HEK293 cells 48 h after transfection; YFP and CFP fused to the ER-luminal N-termini, both partners from one P2A transcript; cells gated for YFP and CFP expression
# [2] = molecular target: T2, CYP2J5, endogenous in mouse hippocampal neurons (mouse (endogenous in primary hippocampal neurons)); assay: proximity ligation; Duolink in situ PLA on methanol-fixed primary mouse hippocampal neurons (WT, with mEH-/- neurons as control); rabbit anti-CYP2J2 and goat anti-rat mEH primary antibodies
Binder,binding [1],binding [2]
B1,binds,–
B2,binds,–
B3,–,binds
